Reference: PubChem BioAssay AID1508587 (Peter MacCallum Cancer Centre, 2020)
The deposit covers about 1,600 reagents; below is a random part of them. In the full data, 623 (39%) got an active call. 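Calls are for each duplex; lactate ratios contain extreme outliers.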 A number with no mark means an inactive call. Reagents against one gene are numbered here.

Test: 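Retest of knockdowns boosting BRAF inhibitor action on lactate release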 (follow-up of hits)
Cells: human WM266.4 melanoma cells with a BRAF V600 mutation
Reagent: single siRNA against human genes, 25 nM
Timing: 96 h
Challenge: vemurafenib 300 nM (about IC25), given 48 h after transfection for 48 h
Read-out: 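Medium lactate read by absorbance over DAPI-counted nuclei; ratio with versus without vemurafenib, set against non-targeting siRNA, averaged over 2 replicates; cell number also recorded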
Direction: lactate per cell, drug vs no drug: higher = less drug-induced drop in lactate per cell; lactate per cell with vemurafenib: higher = more lactate per cell under drug; lactate per cell without drug: higher = more lactate per cell without drug; cell growth with vemurafenib and cell growth without drug: higher = more cell growth over 48 h
Active means: 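Enhancer call for any duplex whose drug versus no-drug per-cell lactate ratio is below 0.55 (2 SD beneath non-targeting average); genes confirmed when at least 2 of their 4 duplexes qualify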

gene	reagent no.	lactate per cell, drug vs no drug	lactate per cell with vemurafenib	lactate per cell without drug	cell growth with vemurafenib	cell growth without drug
ZNF675	1	0.67	0.66	0.66	1.26	1.42
ZNF675	2	0.59	0.79	0.92	0.31	0.68
ZNF675	3	0.54 (active)	1	1.29	0.3	0.41
ZNF675	4	0.3 (active)	0.74	1.72	0.07	-0.02
ITPR2	1	0.51 (active)	0.77	0.9	0.52	0.62
ITPR2	2	0.49 (active)	1.14	1.36	0.29	0.25
ITPR2	3	0.72	1.68	1.48	0.22	0.45
ITPR2	4	0.52 (active)	1.09	1.24	0.6	0.54
MIDN	1	0.7	1.13	1.06	0.41	0.46
MIDN	2	0.56	1.65	1.96	-0.01	-0.02
MIDN	3	0.66	1	0.98	0.81	0.89
MIDN	4	0.78	1.26	1.06	0.83	0.91
VSTM2L	1	0.58	1.32	1.62	0.2	0.26
VSTM2L	2	0.77	1.58	1.36	0.33	0.38
VSTM2L	3	0.76	2.68	2.33	0.25	0.15
VSTM2L	4	0.6	0.78	0.85	0.01	0.04
CIRSR	1	0.77	3.07	2.72	0.11	0.12
CIRSR	2	0.9	8.7	7.11	-0.09	-0.12
CIRSR	3	0.57	1.35	1.6	0.17	0.22
CIRSR	4	0.6	0.92	1.04	0.88	0.9
CDK14	1	0.55	3.14	3.64	0.21	0.08
CDK14	2	0.49 (active)	1.14	1.47	0.63	0.49
CDK14	3	0.99	2.31	1.55	0.1	0.17
CDK14	4	1.02	3.57	2.21	0.08	0.11
TUBB2A	1	1.39	3.08	1.54	-0.13	0.36
TUBB2A	2	0.69	1.12	1.06	0.79	0.9
TUBB2A	3	0.62	1.64	1.76	0.85	0.7
TUBB2A	4	0.74	2.44	2.14	0.18	0.17
MAP2K3	1	0.48 (active)	0.48	0.65	0.47	0.49
MAP2K3	2	0.44 (active)	0.94	1.38	0.39	0.28
MAP2K3	3	0.74	1.08	0.97	0.14	0.52
MAP2K3	4	0.6	1.19	1.27	0.53	0.64
SLC38A6	1	0.46 (active)	1.68	2.21	0.56	0.16
SLC38A6	2	0.33 (active)	0.44	0.8	0.72	0.94
SLC38A6	3	0.7	0.84	0.72	0.38	0.55
SLC38A6	4	0.61	1.07	1.04	0.54	0.86

Look-ups from above.
For “lactate per cell with vemurafenib”, VSTM2L #2 reads 1.58
Result of SLC38A6 #2 in “lactate per cell, drug vs no drug”: 0.33 (active)
Entry of MIDN #1 under “lactate per cell, drug vs no drug”: 0.7
For “lactate per cell without drug”, MIDN #4 is entered as 1.06
VSTM2L #3, cell growth with vemurafenib: 0.25
For “lactate per cell without drug”, CIRSR #4 reads 1.04

More entries:
gene	reagent no.	lactate per cell, drug vs no drug	lactate per cell with vemurafenib	lactate per cell without drug	cell growth with vemurafenib	cell growth without drug
TBL1Y	1	0.78	0.83	0.7	0.32	0.74
TBL1Y	2	0.71	2.02	1.9	0.26	0.27
TBL1Y	3	0.52 (active)	1.23	1.58	0.07	0.14
TBL1Y	4	0.82	1.99	1.6	0.08	0.21
PMVK	1	0.63	1.25	1.27	0.29	0.37
PMVK	2	0.64	1.07	1.05	0.35	0.36
PMVK	3	0.77	2.34	1.93	0.06	0.2
PMVK	4	0.76	0.86	0.7	0.85	1.53
SPDEF	1	1.02	3.08	1.94	0.26	0.31
SPDEF	2	0.69	1.3	1.24	0.63	0.59
SPDEF	3	0.5 (active)	1	1.29	0.73	0.44
SPDEF	4	0.56	2.08	2.41	0.21	0.09
FZD7	1	0.94	2.24	1.58	0.23	0.53
FZD7	2	0.7	1.5	1.36	0.65	0.73
FZD7	3	0.66	1.37	1.33	0.43	0.49
FZD7	4	0.44 (active)	0.52	0.74	1.28	1.36
TRPT1	1	0.48 (active)	1.4	1.81	0.19	0.23
TRPT1	2	0.7	0.82	0.74	0.43	0.86
TRPT1	3	0.72	1.75	1.54	0.19	0.12
TRPT1	4	0.9	1.82	1.27	-0.24	0.33
MOB3B	1	0.93	2.76	2.04	0.16	0.22
MOB3B	2	0.6	0.5	0.56	0.18	0.33
MOB3B	3	0.5 (active)	1.62	2.23	0.13	0.07
MOB3B	4	1.08	5.85	3.68	-0.1	-0.05
YBEY	1	0.7	2	1.89	-0.11	0.2
YBEY	2	0.6	1.75	1.9	-0.01	0.07
YBEY	3	0.3 (active)	0.42	0.9	0.06	0.01
YBEY	4	0.58	1.12	1.29	0.92	0.61
